PubChem BioAssay AID1508588 – Peter MacCallum Cancer Centre – 2020

Assay: 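Knock-downs boosting vemurafenib effects on melanoma cell growth or lactate release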 (primary screen)
Cells: human WM266.4 melanoma cells (BRAF V600 mutant)
Reagents: siRNA pool against human genes, 40 nM
Timing: 96 h from transfection to read-out
Treatment: vemurafenib 300 nM (about IC25), added 48 h after transfection, for 48 h; comparison arm got DMSO vehicle only
Detection: 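Cell gain (DAPI nuclei at end minus before drug, mean of two replicates) and medium lactate by absorbance per cell, both as ratio to non-targeting siRNA, also grouped into fold-change classes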
Scale: cell gain with vemurafenib: higher = more cell gain than with non-targeting siRNA; lactate per cell with vemurafenib: higher = more lactate made per cell
Active means: 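a knock-down counts as enhancing when its fold-change classes with vehicle and with vemurafenib, taken together, show a stronger drug effect on cell gain or lactate per cell; exact class pairs not stated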
Meaning of the calls: active = enhances vemurafenib effect; inactive = no enhancement seen
Here is a random part of about 18,000 reagents. 790 of all reagents (4.4%) count as active. 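Calls rest on a combination of fold-change classes in drug and vehicle arms, not all shown here.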

no.	target gene	cell gain with vemurafenib	lactate per cell with vemurafenib	Outcome
1	LNPK (GeneID 80856)	0.37	1.82	inactive
2	ATP1B3 (GeneID 483)	0.07	2.55	inactive
3	CRYM (GeneID 1428)	0.25	0.74	inactive
4	BLOC1S4 (GeneID 55330)	0.59	1.4	inactive
5	MEIOC (GeneID 284071)	0.82	1.37	inactive
6	GMFB (GeneID 2764)	0.81	1.5	inactive
7	DTL (GeneID 51514)	0.33	1.41	inactive
8	ST3GAL3 (GeneID 6487)	0.29	1.48	inactive
9	MBNL2 (GeneID 10150)	0.76	0.78	inactive
10	NUP54 (GeneID 53371)	0.49	0.81	inactive
11	SYT16 (GeneID 83851)	0.12	1.68	inactive
12	FAP (GeneID 2191)	0.62	0.5	inactive
13	ATXN7L2 (GeneID 127002)	0.41	1.63	inactive
14	STON1 (GeneID 11037)	0.85	0.96	inactive
15	SFSWAP (GeneID 6433)	0.16	0.52	inactive
16	PHF11 (GeneID 51131)	0.98	0.78	inactive
17	TYK2 (GeneID 7297)	0.7	0.47	active
18	ZKSCAN4 (GeneID 387032)	0.99	0.25	active
19	ZNF396 (GeneID 252884)	0.88	0.42	inactive
20	SVIL (GeneID 6840)	0.5	0.7	active
21	INPP5B (GeneID 3633)	0.43	1	inactive
22	PBX1 (GeneID 5087)	0.4	2.2	inactive
23	C6orf120 (GeneID 387263)	1.26	0.67	inactive
24	ZFP30 (GeneID 22835)	0.52	0.63	inactive
25	SMDT1 (GeneID 91689)	1.12	0.86	inactive
26	MESP2 (GeneID 145873)	0.7	0.69	inactive
27	PSMA3 (GeneID 5684)	-0.02	2.62	inactive
28	DCPS (GeneID 28960)	0.53	0.72	inactive
29	TLK1 (GeneID 9874)	0.57	0.48	inactive
30	ZDHHC3 (GeneID 51304)	0.73	0.52	inactive
31	QNG1 (GeneID 84267)	0.16	2.42	inactive
32	HPS4 (GeneID 89781)	0.12	1.17	active
33	OR2AT4 (GeneID 341152)	0.46	0.39	inactive
34	RNF40 (GeneID 9810)	0.78	0.95	inactive
35	TRIM14 (GeneID 9830)	0.93	0.94	inactive
36	CHAC2 (GeneID 494143)	0.29	2.76	inactive
37	ARRDC1-AS1 (GeneID 85026)	0.7	1.29	inactive
38	SCGB2A2 (GeneID 4250)	0.58	0.77	inactive
39	ZNF75A (GeneID 7627)	0.21	0.96	inactive
40	PTPRR (GeneID 5801)	0.78	0.81	inactive
41	HERC6 (GeneID 55008)	0.21	1.98	inactive
42	MLPH (GeneID 79083)	0.71	0.44	inactive
43	SURF1 (GeneID 6834)	0.61	1.11	inactive
44	KLRB1 (GeneID 3820)	0.92	0.55	inactive
45	CA10 (GeneID 56934)	-0.09	0.88	inactive
46	BRAT1 (GeneID 221927)	1.34	1.05	inactive
47	IRX6 (GeneID 79190)	0.7	0.84	inactive
48	RPS6KB2 (GeneID 6199)	0.72	0.41	active
49	MAGEA3 (GeneID 4102)	1.16	0.76	inactive
50	SLC2A5 (GeneID 6518)	0.37	0.88	inactive
51	HEATR5B (GeneID 54497)	0.9	0.76	inactive
52	IRX2 (GeneID 153572)	0.43	0.68	inactive
53	AGAP1 (GeneID 116987)	1.19	0.72	inactive
54	HPS1 (GeneID 3257)	0.94	1.25	inactive
55	STK17A (GeneID 9263)	1.03	0.1	inactive
56	METTL13 (GeneID 51603)	0.61	0.96	inactive
57	AGBL1 (GeneID 123624)	0.42	0.64	inactive
58	TLE1 (GeneID 7088)	0.89	1.25	inactive
59	ADAM2 (GeneID 2515)	0.57	0.59	inactive
60	LAT2 (GeneID 7462)	0.04	1.19	inactive
61	PSMA1 (GeneID 5682)	-0.06	2.25	inactive
62	IDUA (GeneID 3425)	0.75	0.71	inactive
63	POMZP3 (GeneID 22932)	1.18	0.62	inactive
64	ST20-AS1 (GeneID 283687)	0.59	1.52	inactive
65	ZNF324 (GeneID 25799)	0.07	2.31	inactive
66	NLRP13 (GeneID 126204)	0.92	0.7	inactive
67	SFI1 (GeneID 9814)	-0.02	1.5	inactive
68	ADAM23 (GeneID 8745)	0.98	0.56	inactive
69	CHID1 (GeneID 66005)	0.53	0.79	inactive
70	EBLN2 (GeneID 55096)	0.62	0.36	inactive
71	ZSCAN26 (GeneID 7741)	0.64	1.06	inactive
72	CD69 (GeneID 969)	0.37	1.81	inactive
73	IQUB (GeneID 154865)	0.75	1.01	inactive
74	RBP7 (GeneID 116362)	1.12	0.66	inactive
75	CLIP3 (GeneID 25999)	1.13	0.94	inactive
76	SMARCAD1 (GeneID 56916)	0.58	0.77	inactive
77	LSG1 (GeneID 55341)	0.59	1.13	inactive
78	SI (GeneID 6476)	0.45	1.35	inactive
79	CD300LG (GeneID 146894)	0.84	1.36	inactive
80	SYN3 (GeneID 8224)	0.41	1.1	inactive
81	ZNF791 (GeneID 163049)	0.58	0.64	inactive
82	MTRF1L (GeneID 54516)	0.63	1.2	inactive
83	RNF222 (GeneID 643904)	1.12	0.85	inactive
84	MMP20 (GeneID 9313)	0.65	1.45	inactive

10 of these entries in another layout:
target gene	cell gain with vemurafenib	lactate per cell with vemurafenib	Outcome
TRIM14 (GeneID 9830)	0.93	0.94	inactive
CHAC2 (GeneID 494143)	0.29	2.76	inactive
ARRDC1-AS1 (GeneID 85026)	0.7	1.29	inactive
SCGB2A2 (GeneID 4250)	0.58	0.77	inactive
ZNF75A (GeneID 7627)	0.21	0.96	inactive
PTPRR (GeneID 5801)	0.78	0.81	inactive
HERC6 (GeneID 55008)	0.21	1.98	inactive
MLPH (GeneID 79083)	0.71	0.44	inactive
SURF1 (GeneID 6834)	0.61	1.11	inactive
KLRB1 (GeneID 3820)	0.92	0.55	inactive
